Laboratory results as given in ChEMBL document CHEMBL2062363, “Ligand-based design, in silico ADME-Tox filtering, synthesis and biological evaluation to discover new soluble 1,4-DHP-based CFTR activators” (Eur J Med Chem, 2012).

Settings: buffer, 0.5 h, pH 7.4

SMILES: COC(=O)C1=C(C)NC(C)=C(C(=O)OC)C1c1ccccc1[N+](=O)[O-] [NIFEDIPINE]
- log(solubility): -4.18
